# Source: PubChem BioAssay AID2685 (National Center for Advancing Translational Sciences (NCATS), 2010)
# In all, about 320,000 compounds went through this assay and about 2,100 (0.66%) were called active. This list was built around the results that the source calls inconclusive (neither active nor inactive); the mix of calls is not that of the screen. Calls come from the whole dose curve; as a rule, active = well fitted inhibition curve with a large enough effect in the signal ratio, with a control signal flat (not every such curve was filed as active); inconclusive = small, poorly fitted or top-dose-only effect, or effect the other way, or a change in a side signal; inactive = flat fitted curve, though single readings scatter; the % refers to the signal ratio. Where the call is inconclusive, the potency comes from a doubtful curve fit.
# Test: qHTS Assay for Lipid Storage Modulators in Drosophila S3 Cells
# Details: BODIPY lipid droplet fluorescence, 18-24 h, cells fed with added oleic acid; lipid storage change, negative = inhibition: at 46.1 µM (top of the series) unless noted
# Summary of the method: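 Laser-scanning cytometry quantifies lipid droplet accumulation (500–530 nm total intensity; droplet/cell object ratio) in oleic acid-fed (400 uM added) Drosophila S3 cells treated with a concentration series. 20 uM Triacsin C defined 100% inhibition.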
# % is set by controls: 0 for no effect and ±100 for the full control effect; potency is the fitted concentration of half-maximal effect.
Compound,"lipid storage change, negative = inhibition",Potency
O=C(Nc1ccccc1O)c1ccc2c(c1)C(=O)N(c1ccccc1)C2=O,inconclusive: 8.82%,–
C=CCSc1nc2sc3c(c2c(=O)[nH]1)CCC3,–,"inconclusive: 29.1 µM [falling, single point]"
NC(=O)COc1ccccc1C(=O)O,inconclusive: 20.8%,–
CCOC(=O)CCNC(=O)N1CCC(CCC(=O)NCc2ccc(F)cc2)CC1,inconclusive: -18%,–
CCOc1ccccc1N1C(=O)c2ccc(C(=O)O)cc2C1=O,–,active: 4.61 µM
NC(=O)c1ccsc1NC(=O)COC(=O)c1nc(Cl)ccc1Cl,inconclusive: 23.7%,–
CCNC(=O)NC(=O)CSc1ccc(S(=O)(=O)N(C)C2CCCCC2)cn1,inconclusive: 1.61%,–
CCC1CCCCN1CCCNC(=O)CSc1nc2nc(C)c(Cc3ccccc3)c(C)n2n1 (centres undefined),inconclusive: 192%,–
O=C(/C=C/c1ccc(F)cc1)NC(=S)Nc1ccccc1C(=O)NC1CCCCC1,–,"inconclusive: 29.1 µM [falling, single point]"
COc1ccc(NS(=O)(=O)c2cc(NC(=O)CC3CCCC3)ccc2N2CCOCC2)cc1,inconclusive: 37.4%,–
Cc1ccc(S(=O)(=O)N2CCN(C(=O)COC(=O)Cc3ccc(F)cc3)CC2)c(C)c1,inactive,–
COc1ccccc1-c1nn(Cc2ccccc2)cc1C(=O)N1CCN(c2ncccn2)CC1,–,"inconclusive: 5.8 µM [activator, single point]"
Cc1c(C(=O)NCc2ccccn2)oc2ccc(S(=O)(=O)N3CCOCC3)cc12,–,"inconclusive: 1.84 µM [activator, partial curve, poor fit]"
COc1ccc(N2CCN(C(=O)COC(=O)c3ccc(OC(F)F)cc3)CC2)cc1,inconclusive: 8.12%,–
Cc1ccc(S(=O)(=O)NCc2ccc(C(=O)NCCCN3CCN(C)CC3)cc2)cc1,inconclusive: 16.7%,–
O=C(NCC(c1ccc(F)cc1)N1CCOCC1)c1cccc(Br)c1 (centres undefined),inconclusive: -1.58%,–
C=CCn1cnc2c(c1=O)c1nc3ccccc3nc1n2-c1ccccc1,–,"inconclusive: 29.1 µM [activator, single point]"
CC(C)(C)c1ccc(NC(=O)COC(=O)C2=COCCO2)cc1,inconclusive: 6.77% [at 9.22 µM],–
Cc1cc(OC(=O)c2c(Cl)cc(Cl)cc2Cl)nc(C)n1,inconclusive: -33.5%,–
Cc1ccc2nc(NC(=O)CSc3nc4ccccc4o3)sc2c1,inconclusive: -7.59%,–
CC(=O)c1ccc(NC(=O)c2ccc(C)c(S(=O)(=O)N3CCOCC3)c2)cc1,–,"inconclusive: 0.58 µM [activator, single point]"
CC1(C)Cc2c(sc(NC(=O)c3ccc4ncsc4c3)c2C(N)=O)C(C)(C)N1,inconclusive: -0.281%,–
O=C1C2CC=CCC2C(=O)N1c1ccc(Cc2ccncc2)cc1 (centres undefined),inconclusive: -2.52%,–
Nc1n[nH]c(-c2ccccc2[N+](=O)[O-])n1,inconclusive: 17.8%,–
Cc1ccc(C(C)NC(=S)NC2CCCCC2)c(C)c1 (centres undefined),inconclusive: 8.03%,–

# Whole records, quoted from the list. Order of values: lipid storage change, negative = inhibition | Potency
# Cc1c(C(=O)NCc2ccccn2)oc2ccc(S(=O)(=O)N3CCOCC3)cc12 as listed: – | inconclusive: 1.84 µM [activator, partial curve, poor fit]
# CC(=O)c1ccc(NC(=O)c2ccc(C)c(S(=O)(=O)N3CCOCC3)c2)cc1 as listed: – | inconclusive: 0.58 µM [activator, single point]

# Continuation.

Compound,"lipid storage change, negative = inhibition",Potency
O=C(NCC1CCS(=O)(=O)C1)NCC1CCS(=O)(=O)C1 (centres undefined),–,"inconclusive: 0.651 µM [falling, partial curve, poor fit]"
CCCCN(C(=O)CSCC(=O)Nc1ccc(C)cc1)c1c(N)n(CCCC)c(=O)[nH]c1=O,–,"inconclusive: 16.4 µM [activator, partial curve, poor fit]"
O=C(CSc1ncnc2scc(-c3ccc(F)cc3)c12)c1ccc2c(c1)OCCO2,inactive,–
Cc1nnc(SCC(=O)N2CCN(S(=O)(=O)c3ccccc3)CC2)[nH]c1=O,–,"inconclusive: 29.1 µM [falling, single point]"
Cc1[nH]n2c(=O)cc(C(C)C)nc2c1-c1ccccc1,–,"inconclusive: 20.6 µM [activator, single point]"
CN(Cc1ccccc1)c1nc2c(c(=O)[nH]c(=O)n2C)n1CCCSc1ncccn1,–,"inconclusive: 1.16 µM [activator, full curve]"
N/C(=N\OC(=O)Cc1ccccc1[N+](=O)[O-])c1ccccn1,inconclusive: 25%,–
CN(C(=O)CC1C(=O)NCCN1Cc1ccccc1F)C1CCOCC1 (centres undefined),inconclusive: 2.44%,–
COc1ccc(-c2[nH]ncc2/C=N\NS(=O)(=O)c2ccc(Cl)cc2)cc1,–,"inconclusive: 1.64 µM [activator, partial curve]"
CCOc1ccccc1NC(=O)Nn1cnnc1,inconclusive: 25.3%,–
CNc1ncc(Cc2ccccc2)s1,–,"inconclusive: 16.4 µM [falling, partial curve]"
COc1ccccc1CNC(=O)COC(=O)/C=C/c1cccs1,inconclusive: 15.7%,–
O=C(N/N=C/c1ccccc1)c1ccco1,inconclusive: -29.6%,–
COc1cc(OC)nc(NC(=O)CSc2nc3ccccc3o2)n1,–,"inconclusive: 6.51 µM [rising, single point]"
O=c1[nH]c(=O)c2nnc(N/N=C/c3ccccc3F)nc2[nH]1,inconclusive: 2.38%,–
O=c1cc(-c2ccccc2Cl)oc2cc(O)cc(O)c12,inconclusive: 0.622%,–
O=C(NCc1ccco1)C1CCCN1C(=O)Nc1ccccc1[N+](=O)[O-] (centres undefined),–,"inconclusive: 0.58 µM [activator, single point]"
O=C(CN1CCC(O)(c2ccccc2)CC1)Nc1ccc2c(c1)OCCO2,inconclusive: 22.6%,–
COc1ccc(C(=O)CCC(=O)Nc2ccc(N3CCCCC3)cc2)cc1OC,–,"inconclusive: 29.1 µM [falling, single point]"
CN(C(=O)CN1C(=O)NC(c2ccccc2)(c2ccccc2)C1=O)C1CCS(=O)(=O)C1 (centres undefined),–,"inconclusive: 2.91 µM [activator, full curve]"
FC(F)(F)c1cccc(CN2CCSCC2)c1,inconclusive: 19.5%,–
Fc1ccc(/C=N/N2CCCCC2)c(F)c1,inconclusive: 11.6%,–
CC1Cc2ccccc2N1C(=O)CN(C)CC(=O)Nc1ccc(F)cc1 (centres undefined),inconclusive: 11.4%,–
CCCOc1cccc(OCC(=O)Nc2nc3ccccc3[nH]2)c1,inconclusive: 3.89%,–
